From article PMC9643420
No constants are given. Whether binding was seen depends on the method and setting. Binding seen in cells or lysates may run through a third protein. Some results given as binding are weak or reduced against the parent protein; the word gives no strength.

Amino acid sequences for entries named in this document (tags omitted).
UniProt Q00839: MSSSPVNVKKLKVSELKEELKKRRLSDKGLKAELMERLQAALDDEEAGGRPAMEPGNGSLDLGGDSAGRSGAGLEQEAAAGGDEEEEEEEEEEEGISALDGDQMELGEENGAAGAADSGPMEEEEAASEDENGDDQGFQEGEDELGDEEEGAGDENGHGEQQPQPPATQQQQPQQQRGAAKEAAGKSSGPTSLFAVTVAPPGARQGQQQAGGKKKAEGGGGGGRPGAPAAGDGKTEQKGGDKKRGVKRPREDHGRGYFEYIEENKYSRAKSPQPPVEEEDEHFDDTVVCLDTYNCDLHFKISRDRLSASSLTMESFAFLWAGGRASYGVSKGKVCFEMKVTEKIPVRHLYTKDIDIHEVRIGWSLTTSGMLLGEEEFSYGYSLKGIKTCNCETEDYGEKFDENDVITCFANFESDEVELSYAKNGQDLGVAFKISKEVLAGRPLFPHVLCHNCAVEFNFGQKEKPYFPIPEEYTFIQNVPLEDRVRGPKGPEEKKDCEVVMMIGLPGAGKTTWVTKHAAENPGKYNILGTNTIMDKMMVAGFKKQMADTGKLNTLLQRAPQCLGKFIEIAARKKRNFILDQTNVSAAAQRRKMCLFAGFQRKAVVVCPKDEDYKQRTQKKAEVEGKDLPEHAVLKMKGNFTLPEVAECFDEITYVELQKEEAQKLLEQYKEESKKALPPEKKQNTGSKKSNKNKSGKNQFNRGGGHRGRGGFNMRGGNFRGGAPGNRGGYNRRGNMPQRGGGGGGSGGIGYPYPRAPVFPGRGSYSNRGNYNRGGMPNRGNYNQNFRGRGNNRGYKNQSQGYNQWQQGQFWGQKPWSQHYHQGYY
UniProt P17844: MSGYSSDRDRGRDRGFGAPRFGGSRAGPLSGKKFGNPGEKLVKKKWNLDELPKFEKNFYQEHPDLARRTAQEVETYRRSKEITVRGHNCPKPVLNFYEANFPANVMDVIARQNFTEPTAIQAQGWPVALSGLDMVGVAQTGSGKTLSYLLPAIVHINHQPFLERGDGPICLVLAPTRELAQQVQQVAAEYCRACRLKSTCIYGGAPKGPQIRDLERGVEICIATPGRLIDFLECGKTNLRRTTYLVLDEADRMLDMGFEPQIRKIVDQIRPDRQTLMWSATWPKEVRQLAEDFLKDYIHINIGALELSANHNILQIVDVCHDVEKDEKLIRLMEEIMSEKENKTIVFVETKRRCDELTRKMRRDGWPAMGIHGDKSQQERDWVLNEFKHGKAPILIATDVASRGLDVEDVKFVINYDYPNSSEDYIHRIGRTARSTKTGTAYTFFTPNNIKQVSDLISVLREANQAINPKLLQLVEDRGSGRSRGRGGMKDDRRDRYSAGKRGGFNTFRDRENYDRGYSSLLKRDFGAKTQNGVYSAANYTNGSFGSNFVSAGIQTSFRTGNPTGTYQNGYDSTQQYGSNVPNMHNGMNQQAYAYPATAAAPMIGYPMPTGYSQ

Assays:
[1] = target: 3XFlag-tagged overexpression HNRNPU protein (heterogeneous nuclear ribonucleoprotein U) (UniProt Q00839); test: co-IP; tagged protein (HNRNPU-Flag, its Flag-tagged mutants, or DDX5-Myc) in HEK293T against the endogenous partner; NP40 buffer, antibody overnight at 4 °C, protein G magnetic beads, immunoblotting
[2] = target: endogenous HNRNPU (heterogeneous nuclear ribonucleoprotein U) (human (endogenous in HEK293T)) (UniProt Q00839); test: co-IP; endogenous HNRNPU and endogenous DDX5 in HEK293T cells; immunoblotting

binding [1]: binds
binding [2]: binds
Substance: endogenous DDX5 (DEAD box helicase 5) (from UniProt P17844 1-614)
